According to the supplement of paper PMC12823440, “Inhibitors supercharge kinase turnover through native proteolytic circuits” (Nature, 2025):
Counter-ions that a name gives are not always drawn. The list shows a part of the results. Hit calls seldom repeat between salt and free forms of one compound.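 In K562 cells expressing nanoluciferase-fused kinases, luminescence was recorded at 4 h intervals between 2 and 18 h, normalized as percent of control with DMSO at 100% and a positive control at 0%. A significant (2 sigma) signal drop marks a time point as decreased. The authors' rule for a hit is not shown and takes in more than the number of time points.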

Chains of the proteins cited; added tags and fusions are not shown. Lines headed by an entry give the natural chain unless they say otherwise; changes in a name come on top.
UniProt P53350, whole entry: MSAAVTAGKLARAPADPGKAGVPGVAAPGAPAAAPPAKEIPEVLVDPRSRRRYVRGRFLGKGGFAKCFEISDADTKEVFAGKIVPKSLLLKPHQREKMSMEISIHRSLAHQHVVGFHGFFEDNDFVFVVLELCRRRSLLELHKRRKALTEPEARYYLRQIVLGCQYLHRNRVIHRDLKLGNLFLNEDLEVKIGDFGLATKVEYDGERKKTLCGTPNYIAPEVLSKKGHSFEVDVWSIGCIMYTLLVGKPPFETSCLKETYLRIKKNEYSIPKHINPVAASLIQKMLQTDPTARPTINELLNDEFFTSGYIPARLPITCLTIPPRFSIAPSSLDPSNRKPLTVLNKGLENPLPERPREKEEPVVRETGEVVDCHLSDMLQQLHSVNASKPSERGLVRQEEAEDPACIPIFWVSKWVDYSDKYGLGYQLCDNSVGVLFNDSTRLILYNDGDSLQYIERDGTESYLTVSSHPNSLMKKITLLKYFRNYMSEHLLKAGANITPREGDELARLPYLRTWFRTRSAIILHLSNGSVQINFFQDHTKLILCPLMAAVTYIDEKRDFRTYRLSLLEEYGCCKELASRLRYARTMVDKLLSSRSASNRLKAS
UniProt Q13131: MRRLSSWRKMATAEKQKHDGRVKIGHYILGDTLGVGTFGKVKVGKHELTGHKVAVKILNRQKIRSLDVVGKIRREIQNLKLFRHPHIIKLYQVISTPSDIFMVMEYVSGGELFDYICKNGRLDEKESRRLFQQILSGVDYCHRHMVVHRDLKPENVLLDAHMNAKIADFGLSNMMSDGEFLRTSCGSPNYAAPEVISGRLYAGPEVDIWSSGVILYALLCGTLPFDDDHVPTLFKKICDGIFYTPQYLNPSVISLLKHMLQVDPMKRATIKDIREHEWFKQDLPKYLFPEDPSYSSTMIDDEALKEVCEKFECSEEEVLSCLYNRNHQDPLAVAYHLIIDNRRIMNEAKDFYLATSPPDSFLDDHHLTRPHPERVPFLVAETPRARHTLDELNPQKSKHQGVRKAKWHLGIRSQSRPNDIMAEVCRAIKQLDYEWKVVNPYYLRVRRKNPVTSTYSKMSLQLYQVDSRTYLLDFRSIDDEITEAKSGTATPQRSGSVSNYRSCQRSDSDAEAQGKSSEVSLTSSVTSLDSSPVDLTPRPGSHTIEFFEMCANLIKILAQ
UniProt Q05397, whole entry, looked up: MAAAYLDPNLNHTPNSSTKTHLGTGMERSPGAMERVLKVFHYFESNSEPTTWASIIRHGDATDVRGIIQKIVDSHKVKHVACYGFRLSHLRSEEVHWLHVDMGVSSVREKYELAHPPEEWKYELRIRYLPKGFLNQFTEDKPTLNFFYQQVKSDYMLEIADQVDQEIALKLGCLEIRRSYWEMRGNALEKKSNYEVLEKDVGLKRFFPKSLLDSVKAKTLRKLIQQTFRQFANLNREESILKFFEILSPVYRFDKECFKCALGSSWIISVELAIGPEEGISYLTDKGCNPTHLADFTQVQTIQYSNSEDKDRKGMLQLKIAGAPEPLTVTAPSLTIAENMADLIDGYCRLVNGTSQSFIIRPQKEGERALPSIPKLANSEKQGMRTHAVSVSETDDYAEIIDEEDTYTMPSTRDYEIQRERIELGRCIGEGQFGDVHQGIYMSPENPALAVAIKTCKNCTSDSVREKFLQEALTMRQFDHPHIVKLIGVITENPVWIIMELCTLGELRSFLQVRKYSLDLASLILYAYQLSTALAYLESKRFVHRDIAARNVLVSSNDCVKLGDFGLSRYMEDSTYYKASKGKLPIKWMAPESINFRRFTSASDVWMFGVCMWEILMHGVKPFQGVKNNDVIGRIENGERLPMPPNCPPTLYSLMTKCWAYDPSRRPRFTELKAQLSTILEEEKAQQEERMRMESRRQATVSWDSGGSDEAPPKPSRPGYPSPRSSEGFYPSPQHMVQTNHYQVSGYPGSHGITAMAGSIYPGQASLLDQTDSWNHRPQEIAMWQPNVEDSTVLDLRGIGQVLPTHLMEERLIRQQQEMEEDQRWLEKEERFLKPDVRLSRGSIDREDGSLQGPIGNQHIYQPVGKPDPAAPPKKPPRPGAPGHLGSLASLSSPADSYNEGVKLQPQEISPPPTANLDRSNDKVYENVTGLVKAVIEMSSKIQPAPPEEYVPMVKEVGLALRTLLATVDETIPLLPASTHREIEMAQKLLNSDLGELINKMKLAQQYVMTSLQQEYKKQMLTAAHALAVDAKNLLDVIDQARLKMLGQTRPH
UniProt Q13546: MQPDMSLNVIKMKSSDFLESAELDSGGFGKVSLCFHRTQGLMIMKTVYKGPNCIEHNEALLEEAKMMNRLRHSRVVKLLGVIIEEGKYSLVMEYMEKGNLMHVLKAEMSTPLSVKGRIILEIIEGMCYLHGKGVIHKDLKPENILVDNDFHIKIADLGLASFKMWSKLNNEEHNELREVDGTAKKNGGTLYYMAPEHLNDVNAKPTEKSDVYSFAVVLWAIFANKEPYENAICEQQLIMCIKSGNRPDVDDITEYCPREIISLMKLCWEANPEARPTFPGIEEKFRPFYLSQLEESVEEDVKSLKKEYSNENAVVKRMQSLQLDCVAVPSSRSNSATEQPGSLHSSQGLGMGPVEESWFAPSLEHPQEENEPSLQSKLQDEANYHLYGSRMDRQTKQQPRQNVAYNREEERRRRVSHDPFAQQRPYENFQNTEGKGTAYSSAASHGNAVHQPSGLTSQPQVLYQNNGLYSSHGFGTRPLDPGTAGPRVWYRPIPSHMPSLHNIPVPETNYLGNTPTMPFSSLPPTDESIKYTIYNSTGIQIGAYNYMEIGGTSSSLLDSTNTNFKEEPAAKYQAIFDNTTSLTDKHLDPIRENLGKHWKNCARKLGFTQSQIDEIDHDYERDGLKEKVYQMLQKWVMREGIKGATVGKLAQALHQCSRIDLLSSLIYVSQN
UniProt Q01974, whole entry: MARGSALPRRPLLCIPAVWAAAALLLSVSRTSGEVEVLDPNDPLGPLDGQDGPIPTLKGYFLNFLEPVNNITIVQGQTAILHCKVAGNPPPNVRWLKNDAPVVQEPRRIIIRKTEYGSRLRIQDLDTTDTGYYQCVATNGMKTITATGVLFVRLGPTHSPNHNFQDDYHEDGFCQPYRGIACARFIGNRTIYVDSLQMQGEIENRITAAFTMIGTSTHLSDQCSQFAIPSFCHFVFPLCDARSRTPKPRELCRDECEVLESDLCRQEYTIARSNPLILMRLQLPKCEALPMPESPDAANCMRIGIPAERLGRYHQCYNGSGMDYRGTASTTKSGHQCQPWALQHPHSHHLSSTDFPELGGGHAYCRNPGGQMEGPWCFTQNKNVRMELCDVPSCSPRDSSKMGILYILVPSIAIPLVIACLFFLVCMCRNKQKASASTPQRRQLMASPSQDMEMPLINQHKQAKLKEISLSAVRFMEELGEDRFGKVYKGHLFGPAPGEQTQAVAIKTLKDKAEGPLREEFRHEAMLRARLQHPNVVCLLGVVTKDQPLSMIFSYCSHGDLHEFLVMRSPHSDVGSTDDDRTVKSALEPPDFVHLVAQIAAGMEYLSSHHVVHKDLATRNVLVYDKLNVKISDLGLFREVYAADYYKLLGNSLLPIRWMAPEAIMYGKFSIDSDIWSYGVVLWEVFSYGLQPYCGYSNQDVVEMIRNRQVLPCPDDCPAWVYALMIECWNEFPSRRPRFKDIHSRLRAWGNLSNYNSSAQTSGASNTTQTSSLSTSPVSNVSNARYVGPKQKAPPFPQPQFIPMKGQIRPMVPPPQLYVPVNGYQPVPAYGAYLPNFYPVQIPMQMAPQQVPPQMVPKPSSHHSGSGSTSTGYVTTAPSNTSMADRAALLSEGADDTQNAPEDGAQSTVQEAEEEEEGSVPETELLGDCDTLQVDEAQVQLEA
UniProt Q15418, whole entry: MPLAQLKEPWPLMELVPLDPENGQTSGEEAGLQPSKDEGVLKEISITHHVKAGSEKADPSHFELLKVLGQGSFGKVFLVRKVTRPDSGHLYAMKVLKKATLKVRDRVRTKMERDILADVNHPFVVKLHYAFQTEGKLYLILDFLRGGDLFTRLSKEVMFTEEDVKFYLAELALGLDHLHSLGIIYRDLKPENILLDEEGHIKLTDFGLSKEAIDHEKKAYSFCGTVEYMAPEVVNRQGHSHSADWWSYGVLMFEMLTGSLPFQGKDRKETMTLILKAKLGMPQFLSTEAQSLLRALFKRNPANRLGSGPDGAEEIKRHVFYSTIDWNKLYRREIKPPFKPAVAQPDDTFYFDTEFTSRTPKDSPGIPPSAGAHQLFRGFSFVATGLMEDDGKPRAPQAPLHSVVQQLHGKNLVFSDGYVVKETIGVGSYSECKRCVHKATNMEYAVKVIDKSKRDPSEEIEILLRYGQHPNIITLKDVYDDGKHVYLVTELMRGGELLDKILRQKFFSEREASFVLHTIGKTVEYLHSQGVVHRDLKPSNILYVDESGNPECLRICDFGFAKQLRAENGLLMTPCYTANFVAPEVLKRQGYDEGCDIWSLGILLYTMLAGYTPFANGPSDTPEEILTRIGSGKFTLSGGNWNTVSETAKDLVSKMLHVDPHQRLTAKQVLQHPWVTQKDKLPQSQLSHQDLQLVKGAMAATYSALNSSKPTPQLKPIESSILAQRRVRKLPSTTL
UniProt Q9NYA1, whole entry: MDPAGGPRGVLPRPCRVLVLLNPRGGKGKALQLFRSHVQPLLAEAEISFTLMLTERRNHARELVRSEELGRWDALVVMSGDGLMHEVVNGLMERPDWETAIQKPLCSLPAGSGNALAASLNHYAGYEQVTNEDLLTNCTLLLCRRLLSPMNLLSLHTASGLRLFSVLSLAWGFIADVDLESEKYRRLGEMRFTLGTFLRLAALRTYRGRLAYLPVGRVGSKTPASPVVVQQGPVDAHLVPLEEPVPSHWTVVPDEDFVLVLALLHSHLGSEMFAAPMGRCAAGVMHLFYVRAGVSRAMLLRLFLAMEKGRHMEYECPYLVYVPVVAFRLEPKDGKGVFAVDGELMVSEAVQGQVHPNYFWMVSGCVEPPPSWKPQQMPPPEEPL
UniProt Q9Y6E0: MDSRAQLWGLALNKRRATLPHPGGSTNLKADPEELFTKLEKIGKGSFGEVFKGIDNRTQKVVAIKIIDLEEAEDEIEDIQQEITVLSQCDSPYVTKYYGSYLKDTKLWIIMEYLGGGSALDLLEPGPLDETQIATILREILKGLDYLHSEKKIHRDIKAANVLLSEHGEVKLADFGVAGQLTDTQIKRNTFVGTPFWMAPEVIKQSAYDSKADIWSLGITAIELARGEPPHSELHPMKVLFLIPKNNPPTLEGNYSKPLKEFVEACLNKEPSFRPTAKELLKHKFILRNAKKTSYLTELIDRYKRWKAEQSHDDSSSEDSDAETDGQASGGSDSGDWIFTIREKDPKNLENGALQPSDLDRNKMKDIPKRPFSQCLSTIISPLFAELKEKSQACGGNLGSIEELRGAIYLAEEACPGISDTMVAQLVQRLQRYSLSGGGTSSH

What was measured:
Test in all cases: kinase-Nluc reporter destabilization hit call (1 = scored as downregulated) (binary); higher = compound decreases kinase abundance
Conditions in all cases: K562, 2-18 h
PDPK1 = PDPK1 (UniProt O15530)
PIK4CA = PIK4CA (UniProt P42356)
PIK4CB = PIK4CB (UniProt Q9UBF8)
PLK1 = PLK1 (UniProt P53350)
PRKAA1 = PRKAA1 (UniProt Q13131)
PRKCA = PRKCA (UniProt P17252)
PTK2 = PTK2 (UniProt Q05397)
PTK2B = PTK2B (UniProt Q14289)
RAF1 = RAF1 (UniProt P04049)
[1] = molecular target: RAF1_S257L (clone: RAF1_mut) (UniProt P04049)
RET = RET (UniProt P07949)
[2] = molecular target: RET_M918T (clone: RET_mut) (UniProt P07949)
RIOK1 = RIOK1 (UniProt Q9BRS2)
RIPK1 = RIPK1 (UniProt Q13546)
RIPK2 = RIPK2 (UniProt O43353)
ROR2 = ROR2 (UniProt Q01974)
RPS6KA1 = RPS6KA1 (UniProt Q15418)
SPHK1 = SPHK1 (UniProt Q9NYA1)
SRC = SRC (UniProt P12931)
STK24 = STK24 (UniProt Q9Y6E0)

Measured: kinase-Nluc reporter destabilization hit call

C[C@H](Nc1cc(-c2cnn(C)c2)cc(Nc2cnccn2)n1)c1ccc(F)cc1 [Ilginatinib hydrochloride]
inactive: PDPK1; 2.5 µM 0 | PIK4CA; 2.5 µM 0 | PIK4CB; 2.5 µM 0 | PLK1; 2.5 µM 0 | PRKCA; 2.5 µM 0 | PTK2; 2.5 µM 0 | PTK2B; 2.5 µM 0 | RAF1; 2.5 µM 0 | [1]; 2.5 µM 0 | RET; 2.5 µM 0 | [2]; 2.5 µM 0 | RIOK1; 2.5 µM 0 | RIPK1; 2.5 µM 0 | RIPK2; 2.5 µM 0 | ROR2; 2.5 µM 0 | RPS6KA1; 2.5 µM 0 | SPHK1; 2.5 µM 0 | SRC; 2.5 µM 0 | STK24; 2.5 µM 0
active: PRKAA1; 2.5 µM 1

C=CC(=O)N1CCN(c2ncnc3c(F)c(-c4c(O)cccc4F)c(Cl)cc23)CC1
inactive: PDPK1; 2.5 µM 0 | PDPK1; 10 µM 0 | PIK4CA; 2.5 µM 0 | PIK4CA; 10 µM 0 | PIK4CB; 2.5 µM 0 | PIK4CB; 10 µM 0 | PLK1; 2.5 µM 0 | PLK1; 10 µM 0 | PRKAA1; 2.5 µM 0 | PRKAA1; 10 µM 0 | PRKCA; 2.5 µM 0 | PRKCA; 10 µM 0 | PTK2; 2.5 µM 0 | PTK2; 10 µM 0 | PTK2B; 2.5 µM 0 | PTK2B; 10 µM 0 | RAF1; 2.5 µM 0 | RAF1; 10 µM 0 | [1]; 2.5 µM 0 | [1]; 10 µM 0 | RET; 2.5 µM 0 | RET; 10 µM 0 | [2]; 2.5 µM 0 | [2]; 10 µM 0 | RIOK1; 2.5 µM 0 | RIOK1; 10 µM 0 | RIPK1; 2.5 µM 0 | RIPK1; 10 µM 0 | RIPK2; 2.5 µM 0 | RIPK2; 10 µM 0 | ROR2; 2.5 µM 0 | ROR2; 10 µM 0 | RPS6KA1; 2.5 µM 0 | RPS6KA1; 10 µM 0 | SPHK1; 2.5 µM 0 | SPHK1; 10 µM 0 | SRC; 2.5 µM 0 | SRC; 10 µM 0 | STK24; 2.5 µM 0 | STK24; 10 µM 0

CCS(=O)(=O)N1CC(CC#N)(n2cc(-c3ncnc4[nH]ccc34)cn2)C1 [Baricitinib (phosphate)]
inactive: PDPK1; 10 µM 0 | PIK4CA; 10 µM 0 | PIK4CB; 10 µM 0 | PLK1; 10 µM 0 | PRKAA1; 10 µM 0 | PRKCA; 10 µM 0 | PTK2; 10 µM 0 | PTK2B; 10 µM 0 | RAF1; 10 µM 0 | [1]; 10 µM 0 | RET; 10 µM 0 | [2]; 10 µM 0 | RIOK1; 10 µM 0 | RIPK1; 10 µM 0 | RIPK2; 10 µM 0 | ROR2; 10 µM 0 | RPS6KA1; 10 µM 0 | SPHK1; 10 µM 0 | SRC; 10 µM 0 | STK24; 10 µM 0

COc1cc2c(cc1OC)-c1c(C)c3ccc(OC)c(OC)c3c[n+]1CC2 [Dehydrocorydaline (chloride)]
inactive: PDPK1; 10 µM 0 | PIK4CA; 10 µM 0 | PIK4CB; 10 µM 0 | PLK1; 10 µM 0 | PRKAA1; 10 µM 0 | PRKCA; 10 µM 0 | PTK2; 10 µM 0 | PTK2B; 10 µM 0 | RAF1; 10 µM 0 | [1]; 10 µM 0 | RET; 10 µM 0 | [2]; 10 µM 0 | RIOK1; 10 µM 0 | RIPK1; 10 µM 0 | RIPK2; 10 µM 0 | ROR2; 10 µM 0 | RPS6KA1; 10 µM 0 | SPHK1; 10 µM 0 | SRC; 10 µM 0 | STK24; 10 µM 0

Oc1cccc(-c2nc(N3CCOCC3)c3oc4ncccc4c3n2)c1 [PI-103 (Hydrochloride)]
inactive: PDPK1; 2.5 µM 0 | PIK4CA; 2.5 µM 0 | PIK4CB; 2.5 µM 0 | PLK1; 2.5 µM 0 | PRKAA1; 2.5 µM 0 | PRKCA; 2.5 µM 0 | PTK2; 2.5 µM 0 | PTK2B; 2.5 µM 0 | RAF1; 2.5 µM 0 | [1]; 2.5 µM 0 | RET; 2.5 µM 0 | [2]; 2.5 µM 0 | RIOK1; 2.5 µM 0 | RIPK1; 2.5 µM 0 | RIPK2; 2.5 µM 0 | ROR2; 2.5 µM 0 | RPS6KA1; 2.5 µM 0 | SPHK1; 2.5 µM 0 | SRC; 2.5 µM 0 | STK24; 2.5 µM 0

Cc1cccc(/C=N/Nc2cc(N3CCOCC3)nc(OCCc3ccccn3)n2)c1 [Apilimod (mesylate)]
inactive: PDPK1; 10 µM 0 | PIK4CA; 10 µM 0 | PIK4CB; 10 µM 0 | PLK1; 10 µM 0 | PRKAA1; 10 µM 0 | PRKCA; 10 µM 0 | PTK2; 10 µM 0 | PTK2B; 10 µM 0 | RAF1; 10 µM 0 | [1]; 10 µM 0 | RET; 10 µM 0 | [2]; 10 µM 0 | RIOK1; 10 µM 0 | RIPK1; 10 µM 0 | RIPK2; 10 µM 0 | ROR2; 10 µM 0 | RPS6KA1; 10 µM 0 | SPHK1; 10 µM 0 | SRC; 10 µM 0 | STK24; 10 µM 0

O=C1Nc2ccccc2/C1=C/c1ccccn1 [GSK-3β inhibitor 1]
inactive: PDPK1; 10 µM 0 | PIK4CA; 10 µM 0 | PIK4CB; 10 µM 0 | PLK1; 10 µM 0 | PRKAA1; 10 µM 0 | PRKCA; 10 µM 0 | PTK2; 10 µM 0 | PTK2B; 10 µM 0 | RAF1; 10 µM 0 | [1]; 10 µM 0 | RET; 10 µM 0 | [2]; 10 µM 0 | RIOK1; 10 µM 0 | RIPK1; 10 µM 0 | RIPK2; 10 µM 0 | ROR2; 10 µM 0 | RPS6KA1; 10 µM 0 | SPHK1; 10 µM 0 | SRC; 10 µM 0 | STK24; 10 µM 0

COc1cc2nccc(Nc3cc(OC)c(OC)c(OC)c3)c2cc1OC [GAK inhibitor 49]
inactive: PDPK1; 10 µM 0 | PIK4CA; 10 µM 0 | PIK4CB; 10 µM 0 | PLK1; 10 µM 0 | PRKAA1; 10 µM 0 | PRKCA; 10 µM 0 | PTK2; 10 µM 0 | PTK2B; 10 µM 0 | RAF1; 10 µM 0 | [1]; 10 µM 0 | RET; 10 µM 0 | [2]; 10 µM 0 | RIOK1; 10 µM 0 | RIPK1; 10 µM 0 | RIPK2; 10 µM 0 | ROR2; 10 µM 0 | RPS6KA1; 10 µM 0 | SPHK1; 10 µM 0 | SRC; 10 µM 0 | STK24; 10 µM 0
